A: 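Enzyme assay of the cytosolic lysyl-tRNA synthetase in 384-well plates, read by luminescence. Target: Lysine-tRNA ligase, Plasmodium falciparum 3D7 (UniProt Q8IDJ8). Concentration: 30 µM. Direction is inferred from only a few compounds that gave an IC50; most scored high, so higher reads as stronger inhibition. Size under these conditions: about 69,000 compounds, about 49 of them at 50% or above in at least one test.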
B: 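Histidine-tRNA ligase, Trypanosoma cruzi CL Brener (UniProt Q4DA54). Enzyme assay of histidyl-tRNA synthetase; the read-out is not stated. Concentration: 30 µM. The record gives no direction; compounds that gave an IC50 in retests scored well above the rest, so higher reads as stronger inhibition. About 69,000 compounds were tested under these conditions; 0.045% (about 31) showed 50% or more at least once.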
C: 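Cell assay of Leishmania donovani living inside macrophages; the read-out is not stated. Compounds at 30 µM. Higher reads as stronger inhibition (inferred: compounds with an IC50 in retests scored well above the rest). Of about 69,000 compounds tested this way, about 1,000 (1.5%) reached 50% or more in at least one test.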
D: 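Enzyme assay of the thioesterase domain of polyketide synthase 13; the read-out is not stated. Target: Polyketide synthase Pks13, Mycobacterium tuberculosis (UniProt I6X8D2). Concentration: 30 µM. Higher reads as stronger inhibition (inferred from which compounds were picked for retests). Size under these conditions: about 67,000 compounds, about 300 of them at 50% or above in at least one test.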

Chains of the proteins cited; added tags and fusions are not shown. Residues count along the entry.
UniProt Q8IDJ8, 1-583: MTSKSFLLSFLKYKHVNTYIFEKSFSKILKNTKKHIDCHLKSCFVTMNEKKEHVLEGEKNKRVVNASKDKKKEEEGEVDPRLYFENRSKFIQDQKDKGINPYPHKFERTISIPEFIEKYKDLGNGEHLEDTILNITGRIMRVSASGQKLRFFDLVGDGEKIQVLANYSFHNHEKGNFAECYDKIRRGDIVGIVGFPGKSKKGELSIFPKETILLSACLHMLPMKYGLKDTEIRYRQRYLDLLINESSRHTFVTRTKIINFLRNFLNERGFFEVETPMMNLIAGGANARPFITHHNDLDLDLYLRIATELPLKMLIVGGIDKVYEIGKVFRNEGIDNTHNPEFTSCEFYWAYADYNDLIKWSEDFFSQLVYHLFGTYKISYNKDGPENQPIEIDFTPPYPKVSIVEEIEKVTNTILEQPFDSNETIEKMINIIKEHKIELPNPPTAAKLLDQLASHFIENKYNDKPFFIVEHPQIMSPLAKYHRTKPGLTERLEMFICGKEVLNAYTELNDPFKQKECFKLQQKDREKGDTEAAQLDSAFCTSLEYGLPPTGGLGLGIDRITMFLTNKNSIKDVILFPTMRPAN
UniProt Q4DA54, 1-478: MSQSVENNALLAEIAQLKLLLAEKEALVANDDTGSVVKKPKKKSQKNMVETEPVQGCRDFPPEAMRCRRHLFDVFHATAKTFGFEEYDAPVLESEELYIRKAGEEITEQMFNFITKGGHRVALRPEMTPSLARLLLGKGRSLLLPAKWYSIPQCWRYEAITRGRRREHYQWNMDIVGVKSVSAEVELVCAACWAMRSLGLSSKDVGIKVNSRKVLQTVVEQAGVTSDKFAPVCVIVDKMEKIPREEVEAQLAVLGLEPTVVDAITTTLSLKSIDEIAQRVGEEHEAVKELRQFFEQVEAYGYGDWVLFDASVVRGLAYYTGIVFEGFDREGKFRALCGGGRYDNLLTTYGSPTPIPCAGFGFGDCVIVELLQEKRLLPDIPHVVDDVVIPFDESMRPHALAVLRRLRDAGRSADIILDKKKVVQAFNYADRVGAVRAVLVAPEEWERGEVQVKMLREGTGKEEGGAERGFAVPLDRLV
UniProt I6X8D2, whole entry: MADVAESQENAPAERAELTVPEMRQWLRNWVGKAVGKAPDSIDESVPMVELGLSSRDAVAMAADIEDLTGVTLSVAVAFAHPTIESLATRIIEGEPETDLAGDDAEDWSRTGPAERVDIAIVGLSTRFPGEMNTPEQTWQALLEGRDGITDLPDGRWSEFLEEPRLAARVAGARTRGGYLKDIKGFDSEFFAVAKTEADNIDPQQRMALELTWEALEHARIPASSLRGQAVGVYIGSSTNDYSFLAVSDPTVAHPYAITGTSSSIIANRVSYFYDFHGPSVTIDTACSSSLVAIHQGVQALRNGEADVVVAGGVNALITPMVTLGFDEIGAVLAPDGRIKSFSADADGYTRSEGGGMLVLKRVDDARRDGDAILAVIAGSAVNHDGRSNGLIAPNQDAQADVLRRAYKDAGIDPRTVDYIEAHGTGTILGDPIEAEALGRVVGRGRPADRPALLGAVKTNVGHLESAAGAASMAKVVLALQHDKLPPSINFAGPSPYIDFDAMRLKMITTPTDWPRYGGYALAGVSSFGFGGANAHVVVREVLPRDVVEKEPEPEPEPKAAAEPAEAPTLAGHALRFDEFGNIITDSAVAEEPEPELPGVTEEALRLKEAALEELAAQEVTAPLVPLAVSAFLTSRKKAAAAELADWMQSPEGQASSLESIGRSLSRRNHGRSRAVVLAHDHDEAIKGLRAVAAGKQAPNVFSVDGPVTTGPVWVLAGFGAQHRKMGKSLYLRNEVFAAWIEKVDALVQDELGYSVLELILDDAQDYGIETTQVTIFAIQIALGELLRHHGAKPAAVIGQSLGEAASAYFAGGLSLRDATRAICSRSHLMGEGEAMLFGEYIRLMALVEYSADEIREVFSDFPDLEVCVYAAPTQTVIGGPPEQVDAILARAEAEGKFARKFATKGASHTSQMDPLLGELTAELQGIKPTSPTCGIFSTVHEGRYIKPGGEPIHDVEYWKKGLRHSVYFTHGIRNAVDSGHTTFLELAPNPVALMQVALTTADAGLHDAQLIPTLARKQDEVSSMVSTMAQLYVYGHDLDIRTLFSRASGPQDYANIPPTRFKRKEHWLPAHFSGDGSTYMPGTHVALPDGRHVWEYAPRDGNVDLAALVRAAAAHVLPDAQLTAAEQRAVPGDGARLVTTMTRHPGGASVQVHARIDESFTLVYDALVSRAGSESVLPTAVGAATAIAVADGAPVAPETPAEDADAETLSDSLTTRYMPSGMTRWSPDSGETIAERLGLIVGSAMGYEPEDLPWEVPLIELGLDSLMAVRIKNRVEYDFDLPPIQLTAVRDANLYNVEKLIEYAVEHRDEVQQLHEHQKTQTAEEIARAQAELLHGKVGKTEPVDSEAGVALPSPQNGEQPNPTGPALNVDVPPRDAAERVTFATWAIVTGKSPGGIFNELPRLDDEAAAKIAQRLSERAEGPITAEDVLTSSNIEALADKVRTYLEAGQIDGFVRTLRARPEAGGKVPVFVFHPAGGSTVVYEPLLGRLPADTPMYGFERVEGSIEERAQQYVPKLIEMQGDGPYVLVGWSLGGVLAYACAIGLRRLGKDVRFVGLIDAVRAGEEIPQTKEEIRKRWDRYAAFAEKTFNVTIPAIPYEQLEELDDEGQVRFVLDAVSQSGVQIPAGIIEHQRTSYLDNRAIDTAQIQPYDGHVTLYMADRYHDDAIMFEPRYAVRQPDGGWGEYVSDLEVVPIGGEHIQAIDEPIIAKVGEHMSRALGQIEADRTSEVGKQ

The filed quantity is “Percent Effect” (%). How 0% and 100% were set is not recorded. Most values in the screen are low, and negative values occur. Compounds were drawn at random from those tested, without regard to their results. Two or more numbers in one place are separate tests of the same structure; such repeats can differ widely.

SMILES: Cc1cccc(C(C(=O)N(C)Cc2ccco2)N(C)C)c1 (stereo not shown)
A: 1.068
B: 4.469
C: -17.68
D: -0.9728

SMILES: O=C(O)C(F)(F)F.O=C(O)C(F)(F)F.O=C(c1ccc[nH]1)N1CCc2c(COCc3ccncc3)cncc2C1
C: 21.23

SMILES: Cc1cc(C)n(C2CN(Cc3ccc(C(=O)N4CCCC4)cc3)C2)n1
A: 3.071
B: 10.87
C: -18.72
D: -4.489

SMILES: COc1cccc(C(=O)N2CCc3c(nc(N)[nH]c3=O)C2)c1OC
A: 4.524
B: 3.139
C: 29.17
D: -13.94

SMILES: Cn1ncc2c1NC(=O)CC2c1cc2c(cc1Cl)OCO2 (stereo not shown)
A: 4.497
B: -3.665
C: 27.32
D: -24.13

SMILES: CN(C)S(=O)(=O)N1CCN(Cc2ccnc(N3CCCC3)n2)CC1
A: 2.079
B: 3.191
C: -18.22
D: 2.965

SMILES: Cc1cc(NC(=O)NCCc2cccs2)n(C)n1
A: 7.188
B: 5.691
C: -9.195
D: -1.203

SMILES: COc1c(C)cnc(CN2CCCC2c2noc(C3CC3)n2)c1C (stereo not shown)
A: -1.006
B: -1.657
C: -5.203
D: -47.93

SMILES: Cc1nc(C)n(CCC(=O)N2CCc3ncc(Cl)cc3C2)n1
A: 1.037
B: 2.239
C: 19.57 & 22.75
D: -1.27

SMILES: CC(=O)c1cc(CN2CCCCC2c2nc3cc(F)ccc3[nH]2)cs1 (stereo not shown)
A: 4.894
B: 4.469
C: -14.43

SMILES: c1c(CN2CCOCC2)nc2n1CCN(CC1CC1)C2
A: 3.235
B: 0
C: 2.759
D: 5.596

SMILES: O=C(NCCOc1ccc2c(c1)OCO2)C1CC(=O)N(C2CC2)C1 (stereo not shown)
A: -1.398
B: 1.156
C: -9.739
D: -13.09

SMILES: [H][C@@]12CN(Cc3nccs3)C[C@]1([H])CN(C(=O)c1cscn1)C2
C: -12.45

SMILES: COc1ccc2nc3n(c2c1)[C@@H](CNC(=O)c1cncnc1)COC3
A: 1.16
B: 9.783
C: 11.74
D: -1.588

SMILES: Cc1nn(-c2ccccc2)cc1C(=O)N1CCCN2CCCC2C1 (stereo not shown)
A: 1.735
B: -4.151
C: 23.8
D: -12.34

SMILES: NC(=O)CC1CCN(C(=O)NCCc2ccc(Cl)s2)CC1
A: -0.6256
B: 5.634
C: 8.045
D: -19.28

SMILES: Cc1cccc(C(=O)Oc2cc(=O)n3cccc(C)c3n2)c1
A: 4.684
B: 2.439
C: 26.52 & 20.88
D: -16.82

SMILES: Cc1cc(-c2cnc(NC3CCCC3)nc2-c2ccco2)on1
A: 3.475
B: 11.7
C: -37.86
D: 27.06

SMILES: Cc1cccc2c1ccn2CCC(=O)Nc1c2c(nn1C)CSC2
A: 3.965
B: 3.093
C: 6.929
D: 8.064

SMILES: Cn1nc(C2CCCN(C(=O)Cc3ccsc3)C2)c2nccnc21 (stereo not shown)
A: -2.687
B: 3.784
C: -6.829
D: -34.09

SMILES: Cc1ccc(C2(O)CCN(Cc3nnc(-c4cccnc4)o3)CC2)nc1
A: 3.825
B: 7.778
C: 11.12
D: -29.45

SMILES: CSc1ccc(-c2cc(CN)nc3ccnn23)cc1
A: 3.755
B: 10.17
D: 18.53

SMILES: CCCN1CC[C@@H]2[C@@H](CO[C@H]2CNC(=O)c2nccn2C)C1
A: 2.075
B: 3.093
D: -28.87

SMILES: [H][C@@]12COC[C@]1([H])[C@@H](OCC1CCOCC1)CN2c1ncccn1
C: 8.323

SMILES: Cc1cc(N(C)C)cc(C2CCN(S(=O)(=O)c3cccnc3)C2)n1 (stereo not shown)
A: 0
B: 9.579
C: 33.45
D: 1.733

SMILES: Cc1ccc(CN(CCCN2CCOCC2)Cc2[nH]cnc2C)o1.O=C(O)CC(O)(CC(=O)O)C(=O)O
C: 0.7872

SMILES: COCCN1CC2(CCC1=O)CCN(Cc1nnc(C)o1)CC2
A: 0.906
B: 6.627
C: 27.12
D: 1.875

SMILES: N#Cc1cccc(SCCS(N)(=O)=O)c1
A: 0.8091
B: 6.504
C: -0.09518
D: -17.12

SMILES: NC(=O)Nc1cccc(CNC(=O)CCCOCc2ccccc2)c1
A: 3.635
B: 5.051
C: -0.6808
D: 10.06

SMILES: c1cncc(CO[C@H]2CC[C@H]3[C@@H]2OCCN3C2CCOCC2)c1
A: 2.984
B: 0.8264
D: 2.722

SMILES: COc1ccc(S(=O)(=O)NCCCc2nnc3nc(C)cc(C)n23)cc1
A: 2.722
B: 7
C: 5.677
D: 1.335

SMILES: Cn1cnc(S(=O)(=O)N2CCN(Cc3ccco3)CC2)c1Cl
A: 4.773
B: 2.439
C: 25.64
D: 17.51

SMILES: COc1ncccc1C(=O)Nc1ccccc1-c1ccc(=O)n(C)n1
A: 2.954
B: 3.093
C: 15.07 & 7.856
D: -12.79

SMILES: COc1ccnc(N2CCN(C(=O)Cc3ccn(C(C)C)n3)CC2)n1
A: 0.5825
B: 7.289
C: 25.44
D: -13.85

Once more, the final 4:

| SMILES | A | B | C | D |
|---|---|---|---|---|
| `COc1ccc(S(=O)(=O)NCCCc2nnc3nc(C)cc(C)n23)cc1` | 2.722 | 7 | 5.677 | 1.335 |
| `Cn1cnc(S(=O)(=O)N2CCN(Cc3ccco3)CC2)c1Cl` | 4.773 | 2.439 | 25.64 | 17.51 |
| `COc1ncccc1C(=O)Nc1ccccc1-c1ccc(=O)n(C)n1` | 2.954 | 3.093 | 15.07 & 7.856 | -12.79 |
| `COc1ccnc(N2CCN(C(=O)Cc3ccn(C(C)C)n3)CC2)n1` | 0.5825 | 7.289 | 25.44 | -13.85 |

The values are deposited in ChEMBL (CHEMBL3988442, “University of Dundee, Small-Polar-MMV Screening Library” (2021)).